Data: patent US20250215071A1, “Novel Mcl-1 inhibitor and combination of Mcl-1 and a BH3 mimetic, such as a Bcl-2 inhibitor” (NETRIS PHARMA, priority 2022, published 2025)
At least one structure is not confirmed: it was looked up by name or label, or the drawing left a doubt.

Assays:
T47D cells = assay: Annexin V/propidium iodide apoptosis in T47D cells inducible for UNC5B; type: cell-based; conditions: 2 μg/mL doxycycline; 24 hours
MCF7 cells = assay: JC-1 mitochondrial depolarization in MCF7 cells with netrin-1 silencing; type: cell-based; conditions: combined with netrin-1 silencing (siNet); 48 hours
EMT6 cells = assay: EMT6 syngeneic breast tumor model, tumor growth and survival; type: in vivo, BALB/c mice; conditions: NP137 20 mg/Kg loading then 10 mg/Kg i.v.; Venetoclax 5 mg/Kg oral gavage; vs isotypic control antibody
Procedure: FIG. 8. Combining netrin-1 interference and BH3 mimetics inhibits tumor growth in preclinical in vivo and ex vivo models. ((A,B,C): Combining netrin-1 interference and Bcl-2 inhibition restrains tumor growth in a syngeneic breast cancer model. EMT6 cells were engrafted in BALB/c mice and, once tumors reached a volume of 50 mm^3, treated with isotypic (Iso-mAb) or NP137 antibodies and the Bcl-2 inhibitor Venetoclax, as single agents or in combination. Tumor volumes were measured at the indicated days after the first treatment (n=9, ** p<0.01, ordinary two-way ANOVA with Tukey's multiple comparisons test) (A,B). Survival rate was assessed at sacrifice of mice with tumors more than 500 mm^3 (C). (D,E,F): Combined treatment is efficient to induce apoptosis in human ex vivo slices. Cleaved active caspase-3-positive cells were assessed by IHC staining in fresh ex vivo breast tumor tissue slices. […]
FIG. 9. […] 24 hours later, apoptosis was quantified by Annexin V/propidium iodide (PI) staining. EC50 values were calculated using nonlinear regression of Dose-response curves with GraphPad Prism software. […] Apoptosis was then evaluated by 5′,6,6′-tetrachloro-1,1′,3,3′-tetraethylbenzimi-dazolylcarbocyanine iodide (JC-1) dye staining, using NucleoCounter NC3000 (n=2, *p<0.05, ordinary two-way ANOVA with Tukey's multiple comparisons test). […]

[1] = test system: fresh ex vivo breast tumor tissue slices; assay: Ex vivo breast cancer organotypic culture, cleaved caspase-3 IHC; type: cell-based, human; conditions: 24 hours; 10 μg/ml NP137; 1 μM Venetoclax

With CC1(C)CCC(CN2CCN(c3ccc(C(=O)NS(=O)(=O)c4ccc(NCC5CCOCC5)c([N+](=O)[O-])c4)c(Oc4cnc5[nH]ccc5c4)c3)CC2)=C(c2ccc(Cl)cc2)C1 [Venetoclax, 4-[4-[[2-(4-chlorophenyl)-4,4-dimethylcyclohexen-1-yl]methyl]piperazin-1-yl]-N-[3-nitro-4-(oxan-4-ylmethylamino)phenyl] sulfonyl-2-(1H-pyrrolo[2,3-b]pyridin-5-yloxy)benzamide] the “change of EC50 upon UNC5B induction” value (T47D cells) was “significantly reduce Venetoclax EC50”, the mitochondria depolarization (MCF7 cells) was “triggered mitochondria depolarization” and the tumor growth (EMT6 cells) was “no effect on tumor growth”. For the same compound, the “percentage of cleaved caspase-3-positive cells (apoptosis)” value [1] was “not sufficient to trigger apoptosis”.
